Patent US4424229A, “Fluorine containing 2,4,5-triphenylimidazoles” (A/S Dumex (Dumex Ltd.), priority 1982, dated 1984)

How the values were obtained:
[1] = test system: acetic acid induced writhing movements; assay: Writhing test in mice (acetic acid); format: in vivo, mice (NMRI/BOM); details: Mus musculus, po, 20 min, gavage 1/2 hour before i.p. acetic acid, writhings in 20 minutes, read-out: Analgesic ED50, writhing test
Experimental: Tests for analgesic activity
1. Writhing test in mice. (SPF females of the strain NMRI/BOM, weighing 20-25 g). The test substance was administered by gavage 1/2 hour prior to an intraperitoneal injection of acetic acid. The number of writhing movements in 20 minutes was counted.

[2] = test system: arachidonic acid induced aggregation of human platelet rich plasma; assay: Platelet aggregation inhibition test (arachidonic acid induced, human platelet rich plasma); format: cell-based; details: AA = arachidonic acid
Experimental: Platelet aggregation inhibition test The ability of the test substance to inhibit arachidonic acid induced aggregation of human platelet rich plasma was tested in a HU aggregometer (from H. Upchurch & Co. Ltd.).

How did the ED50 [1] turn out when `COc1ccc2cc([C@H](C)C(=O)O)ccc2c1` [Compound 14, Naproxen, reference compound] was run?
The ED50 was 33 mg/kg.

What about the “Inhibition of platelet aggregation IC100” value [2] of the same compound?
The value was 4.76 μg/190 μg AA.
